Results published in publication PMC4192509.
No constants are given. Whether binding was seen depends on the method and setting. Binding can be weak; no strength is given. Sequences can lack the tags named with a protein. For part of these data: Binding seen in cells or lysates may run through a third protein.

Legend:
TPP1(WT)-3xHA (human) [1] = experiment: pull-down; binding assay: purified TPP1 constructs held on anti-HA-agarose beads (pre-incubated with purified USP7(WT)-3xFLAG or buffer, 2 h 37 °C); purified proteins added in 25 mM Tris/HCl pH 8.0, 150 mM NaCl, 2 mM MgCl2 with 0.2 μg/μl BSA, 2 h at 4 °C; Western blot; both purified
[2] = target: TPP1(WT)-3xHA-His (human); experiment: as above
TPP1(WT)-3xHA (human) [3] = experiment: co-IP; HEK293T extracts 48 h post-transfection; 10 mM Tris/HCl pH 8.0, 150 mM NaCl, 2 mM MgCl2, Nonidet P-40; anti-FLAG affinity gel, anti-HA-agarose or anti-USP7 with Protein G-Sepharose, 4 h at 4 °C; Western blot

Measured: binding

B1: TIN2–3xFLAG (protein, UniProt Q9BSI4 1-451)
chain: MATPLVAGPAALRFAAAASWQVVRGRCVEHFPRVLEFLRSLRAVAPGLVRYRHHERLCMGLKAKVVVELILQGRPWAQVLKALNHHFPESGPIVRDPKATKQDLRKILEAQETFYQQVKQLSEAPVDLASKLQELEQEYGEPFLAAMEKLLFEYLCQLEKALPTPQAQQLQDVLSWMQPGVSITSSLAWRQYGVDMGWLLPECSVTDSVNLAEPMEQNPPQQQRLALHNPLPKAKPGTHLPQGPSSRTHPEPLAGRHFNLAPLGRRRVQSQWASTRGGHKERPTVMLFPFRNLGSPTQVISKPESKEEHAIYTADLAMGTRAASTGKSKSPCQTLGGRALKENPVDLPATEQKENCLDCYMDPLRLSLLPPRARKPVCPPSLCSSVITIGDLVLDSDEEENGQGEGKESLENYQKTKFDTLIPTLCEYLPPSGHGAIPVSSCDCRDSSRPL
binds: all assays above
